The target of assay [1] is MMP-2 (human (endogenous in dentin)) (UniProt P08253). Briefly: co-IP; concentrated dentin proteins > 30 kDa (Vivaspin cut-off 30 kDa); anti-MMP-2 or anti-MMP-9 antibody overnight at 4 °C, Protein A/G Plus-Agarose 4 h at 4 °C; 12% SDS-PAGE and immunoblot for TIMP-1.
The target in assay [2] is MMP-9 (human (endogenous in dentin)) (UniProt P14780). The assay is described as above.

The chains behind the UniProt entries cited, without tags or fusion partners. Where a name states a change or a piece, a line headed by the entry shows the natural chain unless it says otherwise. Residues count along the entry.
UniProt P08253: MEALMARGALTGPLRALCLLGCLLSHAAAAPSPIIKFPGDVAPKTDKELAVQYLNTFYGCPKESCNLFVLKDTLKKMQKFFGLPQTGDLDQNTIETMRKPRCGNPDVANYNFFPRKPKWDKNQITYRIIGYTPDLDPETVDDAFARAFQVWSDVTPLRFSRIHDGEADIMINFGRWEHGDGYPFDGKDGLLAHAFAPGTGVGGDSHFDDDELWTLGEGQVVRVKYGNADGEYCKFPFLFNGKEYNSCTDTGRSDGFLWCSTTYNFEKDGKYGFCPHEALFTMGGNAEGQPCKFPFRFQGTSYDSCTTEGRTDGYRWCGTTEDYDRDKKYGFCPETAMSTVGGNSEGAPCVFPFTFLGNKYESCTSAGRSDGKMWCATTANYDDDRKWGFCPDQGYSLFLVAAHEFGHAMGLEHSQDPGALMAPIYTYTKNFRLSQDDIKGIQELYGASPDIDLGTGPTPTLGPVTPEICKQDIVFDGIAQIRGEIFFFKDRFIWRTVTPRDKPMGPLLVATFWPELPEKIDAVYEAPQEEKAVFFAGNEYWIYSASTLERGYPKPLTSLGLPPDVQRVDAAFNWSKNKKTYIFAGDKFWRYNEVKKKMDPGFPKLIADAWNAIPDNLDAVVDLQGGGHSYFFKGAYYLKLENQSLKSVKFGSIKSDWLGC
UniProt P14780: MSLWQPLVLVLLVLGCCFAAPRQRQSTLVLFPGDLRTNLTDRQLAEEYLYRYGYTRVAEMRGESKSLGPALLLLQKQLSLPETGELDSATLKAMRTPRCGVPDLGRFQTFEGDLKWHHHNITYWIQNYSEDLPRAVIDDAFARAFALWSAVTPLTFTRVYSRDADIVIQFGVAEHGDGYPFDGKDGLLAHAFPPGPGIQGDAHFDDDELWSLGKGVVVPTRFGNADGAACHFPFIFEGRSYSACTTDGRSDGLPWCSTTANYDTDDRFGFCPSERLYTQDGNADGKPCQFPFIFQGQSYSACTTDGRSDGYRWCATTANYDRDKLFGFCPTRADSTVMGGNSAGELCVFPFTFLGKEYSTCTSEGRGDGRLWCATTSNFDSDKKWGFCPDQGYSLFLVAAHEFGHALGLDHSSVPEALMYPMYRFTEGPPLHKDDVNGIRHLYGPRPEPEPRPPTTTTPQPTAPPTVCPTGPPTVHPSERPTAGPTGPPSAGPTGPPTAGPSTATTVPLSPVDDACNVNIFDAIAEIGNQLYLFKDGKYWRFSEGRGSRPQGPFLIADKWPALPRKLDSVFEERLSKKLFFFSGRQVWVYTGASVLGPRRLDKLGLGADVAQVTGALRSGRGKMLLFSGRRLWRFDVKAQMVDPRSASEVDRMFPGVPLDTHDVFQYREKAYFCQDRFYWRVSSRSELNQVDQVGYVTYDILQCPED
UniProt P01033, residues 24-207: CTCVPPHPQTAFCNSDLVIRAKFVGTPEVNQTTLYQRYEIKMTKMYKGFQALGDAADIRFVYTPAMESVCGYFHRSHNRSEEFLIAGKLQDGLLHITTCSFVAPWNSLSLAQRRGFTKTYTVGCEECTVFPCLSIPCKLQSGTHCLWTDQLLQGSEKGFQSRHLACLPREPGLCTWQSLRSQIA

No constants are given. Whether binding was seen depends on the method and setting. In cells and extracts the contact can be indirect. A result given as binding can be weak or reduced; the word gives no strength.

Take “tissue inhibitor of metalloproteinases-1 (from UniProt P01033 24-207)”: the binding entry in assay [1] and in assay [2] was “binds” throughout.

Source of the values: publication PMC8342377.
